Measurements taken from the supplement of paper PMC10849652.
This is one part of the list.

By UniProt entry, the sequences of proteins in these tests, tags left out. Where a name states a change or a piece, a line headed by the entry shows the natural chain unless it says otherwise.
UniProt P08590, whole entry, looked up: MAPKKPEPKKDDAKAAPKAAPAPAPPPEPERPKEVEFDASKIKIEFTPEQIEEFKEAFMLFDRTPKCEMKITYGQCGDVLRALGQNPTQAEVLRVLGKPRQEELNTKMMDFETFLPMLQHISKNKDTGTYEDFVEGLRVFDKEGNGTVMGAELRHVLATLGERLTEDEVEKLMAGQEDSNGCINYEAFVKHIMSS
UniProt Q9BT17: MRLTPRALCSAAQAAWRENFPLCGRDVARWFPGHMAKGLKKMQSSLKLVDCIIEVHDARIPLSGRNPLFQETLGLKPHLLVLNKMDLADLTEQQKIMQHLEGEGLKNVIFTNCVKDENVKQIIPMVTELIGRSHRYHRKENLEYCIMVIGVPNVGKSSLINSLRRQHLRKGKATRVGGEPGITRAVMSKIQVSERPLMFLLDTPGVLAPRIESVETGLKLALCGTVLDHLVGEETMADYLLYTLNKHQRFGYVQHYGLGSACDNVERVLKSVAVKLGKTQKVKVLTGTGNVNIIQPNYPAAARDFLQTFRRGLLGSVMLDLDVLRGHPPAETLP
UniProt Q96QG7: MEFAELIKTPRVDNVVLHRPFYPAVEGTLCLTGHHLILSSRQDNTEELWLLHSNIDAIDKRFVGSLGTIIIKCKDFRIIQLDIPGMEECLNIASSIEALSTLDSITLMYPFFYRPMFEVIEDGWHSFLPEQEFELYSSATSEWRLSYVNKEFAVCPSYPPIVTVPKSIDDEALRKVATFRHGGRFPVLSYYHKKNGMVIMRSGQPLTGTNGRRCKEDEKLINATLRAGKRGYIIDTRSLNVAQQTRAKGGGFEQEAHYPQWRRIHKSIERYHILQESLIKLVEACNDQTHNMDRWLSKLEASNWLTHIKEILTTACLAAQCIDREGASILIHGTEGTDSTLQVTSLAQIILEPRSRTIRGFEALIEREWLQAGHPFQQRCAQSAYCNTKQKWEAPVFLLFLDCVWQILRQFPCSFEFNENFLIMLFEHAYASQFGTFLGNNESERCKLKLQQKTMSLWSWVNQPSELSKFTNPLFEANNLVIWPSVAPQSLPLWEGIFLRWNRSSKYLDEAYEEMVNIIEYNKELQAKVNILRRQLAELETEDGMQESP
UniProt Q9UGC7: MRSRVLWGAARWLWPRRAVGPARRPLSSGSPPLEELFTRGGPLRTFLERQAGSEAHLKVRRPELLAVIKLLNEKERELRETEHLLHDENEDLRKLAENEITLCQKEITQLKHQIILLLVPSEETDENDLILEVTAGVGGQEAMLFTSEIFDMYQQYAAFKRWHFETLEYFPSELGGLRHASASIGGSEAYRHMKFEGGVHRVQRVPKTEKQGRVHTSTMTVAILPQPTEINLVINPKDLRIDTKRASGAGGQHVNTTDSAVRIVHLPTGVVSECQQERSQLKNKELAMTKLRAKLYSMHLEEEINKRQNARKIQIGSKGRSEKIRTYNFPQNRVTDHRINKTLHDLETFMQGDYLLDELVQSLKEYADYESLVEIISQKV
UniProt Q9Y2K3: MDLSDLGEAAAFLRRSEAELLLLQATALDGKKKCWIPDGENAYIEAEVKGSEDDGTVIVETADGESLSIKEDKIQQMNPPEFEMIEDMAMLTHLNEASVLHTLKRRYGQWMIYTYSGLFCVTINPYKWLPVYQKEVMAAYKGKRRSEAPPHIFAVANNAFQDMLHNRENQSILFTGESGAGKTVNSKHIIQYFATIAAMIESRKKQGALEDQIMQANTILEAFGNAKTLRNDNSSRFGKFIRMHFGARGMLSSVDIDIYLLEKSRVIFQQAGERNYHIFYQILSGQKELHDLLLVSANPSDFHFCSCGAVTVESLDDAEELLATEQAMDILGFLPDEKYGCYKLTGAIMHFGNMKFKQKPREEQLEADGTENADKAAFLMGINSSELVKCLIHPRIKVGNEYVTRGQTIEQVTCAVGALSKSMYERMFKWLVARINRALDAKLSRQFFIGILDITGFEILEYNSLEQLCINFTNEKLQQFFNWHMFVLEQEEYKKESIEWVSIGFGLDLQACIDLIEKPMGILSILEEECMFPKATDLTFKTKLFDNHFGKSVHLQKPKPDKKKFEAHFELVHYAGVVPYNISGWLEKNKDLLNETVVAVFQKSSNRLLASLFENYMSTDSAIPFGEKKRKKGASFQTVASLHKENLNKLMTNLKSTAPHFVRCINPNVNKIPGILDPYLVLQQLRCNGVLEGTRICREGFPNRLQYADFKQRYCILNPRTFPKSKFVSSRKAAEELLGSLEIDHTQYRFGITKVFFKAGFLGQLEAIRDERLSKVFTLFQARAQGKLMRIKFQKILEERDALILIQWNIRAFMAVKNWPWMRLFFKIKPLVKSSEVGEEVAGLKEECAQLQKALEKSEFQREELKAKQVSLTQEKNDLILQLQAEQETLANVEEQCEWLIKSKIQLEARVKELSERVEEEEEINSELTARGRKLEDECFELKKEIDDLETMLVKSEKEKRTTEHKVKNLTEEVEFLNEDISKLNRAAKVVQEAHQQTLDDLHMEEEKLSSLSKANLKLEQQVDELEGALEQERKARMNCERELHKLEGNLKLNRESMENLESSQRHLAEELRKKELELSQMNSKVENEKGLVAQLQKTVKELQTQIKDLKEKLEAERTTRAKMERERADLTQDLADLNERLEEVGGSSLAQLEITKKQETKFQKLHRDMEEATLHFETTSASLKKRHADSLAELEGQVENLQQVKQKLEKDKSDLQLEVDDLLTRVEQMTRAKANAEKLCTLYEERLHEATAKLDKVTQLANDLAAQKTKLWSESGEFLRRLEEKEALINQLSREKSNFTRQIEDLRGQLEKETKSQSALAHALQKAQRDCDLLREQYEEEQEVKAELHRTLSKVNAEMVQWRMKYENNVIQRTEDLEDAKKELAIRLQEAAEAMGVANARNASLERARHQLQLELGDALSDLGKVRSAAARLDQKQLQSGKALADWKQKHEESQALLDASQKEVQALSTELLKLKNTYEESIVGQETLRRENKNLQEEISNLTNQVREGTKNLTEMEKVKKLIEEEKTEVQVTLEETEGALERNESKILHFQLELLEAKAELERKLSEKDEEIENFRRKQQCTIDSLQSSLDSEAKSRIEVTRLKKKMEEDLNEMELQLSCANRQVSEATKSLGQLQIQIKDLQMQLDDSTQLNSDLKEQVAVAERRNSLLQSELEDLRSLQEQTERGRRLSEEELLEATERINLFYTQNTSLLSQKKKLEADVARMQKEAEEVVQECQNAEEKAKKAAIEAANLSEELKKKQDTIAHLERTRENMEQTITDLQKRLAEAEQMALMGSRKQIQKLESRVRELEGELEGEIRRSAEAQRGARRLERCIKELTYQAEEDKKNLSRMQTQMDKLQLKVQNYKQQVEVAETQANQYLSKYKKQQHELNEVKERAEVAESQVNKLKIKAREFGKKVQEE
UniProt P84157: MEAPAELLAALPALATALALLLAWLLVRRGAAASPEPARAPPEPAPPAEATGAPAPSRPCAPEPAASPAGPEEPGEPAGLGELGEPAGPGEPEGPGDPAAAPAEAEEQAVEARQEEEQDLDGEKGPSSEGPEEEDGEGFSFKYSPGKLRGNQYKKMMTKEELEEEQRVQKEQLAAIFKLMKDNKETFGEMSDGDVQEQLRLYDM
UniProt O43312: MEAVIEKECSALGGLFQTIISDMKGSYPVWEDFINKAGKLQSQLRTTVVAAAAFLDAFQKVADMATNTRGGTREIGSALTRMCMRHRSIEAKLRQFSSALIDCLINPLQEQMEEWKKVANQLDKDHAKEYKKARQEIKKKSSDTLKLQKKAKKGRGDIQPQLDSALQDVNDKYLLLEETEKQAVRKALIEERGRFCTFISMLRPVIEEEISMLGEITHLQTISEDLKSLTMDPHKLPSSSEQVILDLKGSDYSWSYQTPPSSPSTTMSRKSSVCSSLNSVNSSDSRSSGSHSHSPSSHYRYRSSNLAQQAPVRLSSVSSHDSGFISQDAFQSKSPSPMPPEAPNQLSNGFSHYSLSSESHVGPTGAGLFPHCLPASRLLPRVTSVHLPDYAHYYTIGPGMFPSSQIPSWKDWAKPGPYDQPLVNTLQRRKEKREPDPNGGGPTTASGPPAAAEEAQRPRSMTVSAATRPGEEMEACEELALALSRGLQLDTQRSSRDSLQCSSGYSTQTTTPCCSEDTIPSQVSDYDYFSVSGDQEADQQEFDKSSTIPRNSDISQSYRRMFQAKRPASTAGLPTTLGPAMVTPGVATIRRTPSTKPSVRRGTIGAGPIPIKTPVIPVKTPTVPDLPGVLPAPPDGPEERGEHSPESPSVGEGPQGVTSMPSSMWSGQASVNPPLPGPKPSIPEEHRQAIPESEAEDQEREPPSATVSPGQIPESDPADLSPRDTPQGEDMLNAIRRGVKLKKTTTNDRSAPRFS
UniProt Q2M296: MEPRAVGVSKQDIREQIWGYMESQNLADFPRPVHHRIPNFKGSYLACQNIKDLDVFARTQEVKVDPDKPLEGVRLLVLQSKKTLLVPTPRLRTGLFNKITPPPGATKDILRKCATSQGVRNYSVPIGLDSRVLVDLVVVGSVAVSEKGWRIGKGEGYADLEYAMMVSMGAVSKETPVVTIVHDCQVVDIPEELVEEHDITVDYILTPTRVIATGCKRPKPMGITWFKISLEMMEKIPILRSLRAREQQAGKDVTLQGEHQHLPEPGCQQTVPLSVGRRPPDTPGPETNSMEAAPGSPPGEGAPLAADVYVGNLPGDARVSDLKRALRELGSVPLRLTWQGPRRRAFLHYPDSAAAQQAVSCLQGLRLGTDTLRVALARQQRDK

Key:
Assay in all cases: log2 fold change, soluble protein after heating vs DMSO (PISA); higher = thermal stabilisation; K562 cells, 10 uM, 30 min; active = over 0.2 and 3.5 SD of the protein, either way, in both replicates (recomputed)
[1] = compound: CC1=C(C=C(C=C1)NC(=O)C2=CC(=CC=C2)N(C)C)NC(=O)C3=CC=C(C=C3)O
How it was run: (§1)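 For each measurement, 10 μM compound was applied for 30 min to K562 cells at 2×10^6 cells/mL. Aliquots were heated for 3 min across 48°C-58°C, pooled, and extracted in PBS with 0.5% NP-40 at 4°C; the supernatant after 21,000xg for 90 min was soluble protein. This was quantified by TMTpro 16plex LC-MS/MS with channel sums equalised, and thermal stability was reported relative to control samples from duplicates, on a log2 fold-change scale.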

[2] = compound: CC1=CC=C(C=C1)SC2=C3C=C(SC3=CN=C2)C(=O)N
How it was run: as §1

[3] = compound: CC1=NC(=CC=C1)C2=C(N=C(N2)C(C)(C)C)C3=CC4=NC=CN=C4C=C3
How it was run: as §1

[4] = compound: CCCS(=O)(=O)Nc1ccc(F)c(C(=O)c2c[nH]c3ncc(Cl)cc23)c1F
How it was run: as §1

[5] = compound: CCCc1cc(C)[nH]c(=O)c1CNC(=O)c1cc(-c2ccnc(N3CCN(C)CC3)c2)cc2c1cnn2C(C)C
How it was run: as §1

givinostat = compound: CCN(CC)Cc1ccc2cc(COC(=O)Nc3ccc(C(=O)NO)cc3)ccc2c1 [givinostat]
How it was run: as §1

barasertib = compound: CCN(CCCOc1ccc2c(Nc3cc(CC(=O)Nc4cccc(F)c4)[nH]n3)ncnc2c1)CCOP(=O)(O)O [barasertib]
How it was run: as §1

[6] = compound: CC[C@@H]1C(=O)N(C)c2cnc(Nc3ccc(C(=O)NC4CCN(C)CC4)cc3OC)nc2N1C1CCCC1
How it was run: as §1

volasertib = compound: CC[C@@H]1C(=O)N(C)c2cnc(Nc3ccc(C(=O)N[C@H]4CC[C@H](N5CCN(CC6CC6)CC5)CC4)cc3OC)nc2N1C(C)C [volasertib]
How it was run: as §1

[7] = compound: CC[C@H](C)N1C=C(C2=C(C=C(C=C21)C3=CN=C(C=C3)N4CCNCC4)C(=O)NCC5=C(C=C(NC5=O)C)C)C
How it was run: as §1

[8] = compound: CCn1c(C(=O)N(C2CC2)C2CC2)cc2c3c(ncn3C)c(Nc3cc(C)n(C)n3)nc21
How it was run: as §1

[9] = compound: CCn1cc(-c2ccnc3[nH]c(-c4cccc(CN(C)C)c4)cc23)c(-c2ccc(NC(=O)N(C)C)cc2)n1
How it was run: as §1

rosiglitazone = compound: CN(CCOC1=CC=C(C=C1)C[C@H]2C(=O)NC(=O)S2)C3=CC=CC=N3 (racemic) [rosiglitazone]
How it was run: as §1

[10] = compound: CN1C2=C(C3=C1C(=O)N(N=C3)CC4=CC(=CC=C4)N)SC(=C2)S(=O)C
How it was run: as §1

[11] = compound: CN1CCC(CNc2ccc3ncc(-c4cccc(OC(F)(F)F)c4)n3n2)CC1
How it was run: as §1

Nexturastat A = compound: CCCCN(Cc1ccc(C(=O)NO)cc1)C(=O)Nc1ccccc1 [Nexturastat A]
How it was run: as §1

vemurafenib = compound: CCCS(=O)(=O)Nc1ccc(F)c(C(=O)c2c[nH]c3ncc(-c4ccc(Cl)cc4)cc23)c1F [vemurafenib]
How it was run: as §1

epoxomicin = compound: CC[C@H](C)[C@@H](C(=O)N[C@@H]([C@@H](C)O)C(=O)N[C@@H](CC(C)C)C(=O)[C@]1(CO1)C)NC(=O)[C@H]([C@@H](C)CC)N(C)C(=O)C [epoxomicin]
How it was run: as §1

[12] = compound: CN(C)CC(=O)Nc1ccc2[nH]c(=O)c3ccccc3c2c1
How it was run: as §1

[13] = compound: CC1=C(C=C(C=C1)NC(=O)C2=CC(=CC=C2)C(C)(C)C#N)NC3=CC4=C(C=C3)N=CN(C4=O)C
How it was run: as §1

Measured: log2 fold change

MYL3 (UniProt P08590)
inactive: [1] -0.247 | [2] 0.049 | [3] -0.113 | [4] -0.005 | [5] 0.011 | givinostat 0.008 | barasertib 0.045 | [6] 0.044 | volasertib 0.136 | [7] -0.014 | [8] 0.019 | [9] 0.016 | rosiglitazone -0.102 | [10] 0.039 | [11] -0.027

MTG1 (UniProt Q9BT17)
inactive: [1] -0.195 | [2] -0.051 | [3] 0.25 | Nexturastat A -0.271 | vemurafenib 0.133 | [4] 0.013 | [5] 0.062 | givinostat 0.032 | barasertib 0.043 | volasertib -0.057 | [7] 0.012 | epoxomicin -0.142 | [8] -0.131 | [9] -0.189 | [12] 0.165 | rosiglitazone 0.008 | [10] -0.066 | [11] -0.003

MTMR9 (UniProt Q96QG7)
inactive: [1] 0.205 | [2] -0.071 | [3] 0.013 | Nexturastat A 0.014 | vemurafenib 0.049 | [4] 0.036 | [5] 0.049 | givinostat 0.086 | barasertib 0 | [6] 0.009 | volasertib -0.098 | [7] -0.053 | epoxomicin -0.004 | [8] -0.003 | [9] -0.086 | [12] 0.044 | rosiglitazone -0.019 | [10] -0.015 | [11] -0.035

MTRF1L (UniProt Q9UGC7)
inactive: [1] -0.074 | [2] -0.005 | Nexturastat A 0.062 | vemurafenib 0.034 | [4] 0.067 | [5] -0.004 | givinostat 0.012 | barasertib 0.07 | [6] 0.096 | volasertib -0.047 | [7] 0.07 | epoxomicin 0.144 | [8] 0.001 | [9] 0.011 | [12] 0.028 | rosiglitazone 0.068 | [10] 0.006 | [11] 0.02

MYH15 (UniProt Q9Y2K3)
inactive: [13] 0.081 | [5] -0.138 | barasertib 0.113 | [6] -0.045 | [7] 0.111 | rosiglitazone 0.711

2 entries drawn at random from the list so far, as already listed:
MTRF1L (UniProt Q9UGC7)
inactive: [1] -0.074 | [2] -0.005 | Nexturastat A 0.062 | vemurafenib 0.034 | [4] 0.067 | [5] -0.004 | givinostat 0.012 | barasertib 0.07 | [6] 0.096 | volasertib -0.047 | [7] 0.07 | epoxomicin 0.144 | [8] 0.001 | [9] 0.011 | [12] 0.028 | rosiglitazone 0.068 | [10] 0.006 | [11] 0.02

MYH15 (UniProt Q9Y2K3)
inactive: [13] 0.081 | [5] -0.138 | barasertib 0.113 | [6] -0.045 | [7] 0.111 | rosiglitazone 0.711

(continued)

MXRA7 isoform 3 (UniProt P84157)
inactive: [1] 0.178 | [2] -0.174 | [4] 0.193 | volasertib -0.01

MTSS1 isoform 5 (UniProt O43312)
inactive: [2] 0.012 | vemurafenib -0.024 | [4] 0.086 | [5] 0.284 | volasertib -0.021 | [12] 0.047

MTURN (UniProt Q8N3F0)
inactive: [2] 0.106 | [3] -0.037 | vemurafenib 0.258 | [4] 0.025 | [5] 0.006 | barasertib 0.16 | volasertib -0.156 | [12] 0.074 | rosiglitazone 0.003

MTHFSD (UniProt Q2M296)
inactive: [5] -0.137 | [10] 0.21
